According to patent publication US20180245067A1 (UNIVERSITY OF LEEDS, published 2018):
These are yes or no findings as the source states them, for the method shown. A result given as binding can be weak or reduced; the word gives no strength.

The binders below were run against penicillin binding protein 2a (PBP2a) (assay: Adhiron library screen).

Binder | binding
KEQSQAGEWPHSTMYYLTLEAKDGGWKKLYEAKVWVKQYLGANFIANFK (designed binder) [SEQ ID NO 188] | binds
KEQHAEAYPFTMTMYYLTLEAKDGGWKKLYEAKVWVKVYIFNWGQMNFK (designed binder) [SEQ ID NO 186] | binds
KEQTMYYLTLEAKDGGWKKLYEAKVWVKNFK (designed binder) [SEQ ID NO 191] | binds
KEQKSPEEYTYETMYYLTLEAKDGGWKKLYEAKVWVKRYWLKLMTLNFK (designed binder) [SEQ ID NO 185] | binds
KEQRVDQEIDEWTMYYLTLEAKDGGWKKLYEAKVWVKIFVFRWGAMNFK (designed binder) [SEQ ID NO 190] | binds
KEQDFGKEVNMYTMYYLTLEAKDGGWKKLYEAKVWVKTIRGKNFMFNFK (designed binder) [SEQ ID NO 177] | binds
KEQDFGKEVNMYTMYYLTLEAKDGGWKKLYEAKVWVKTIRGKNFMFNFK (designed binder) [SEQ ID NO 178] | binds
KEQTKSTVSDMETMYYLTLEAKDGGWKKLYEAKVWVKKYWISHFALNFK (designed binder) [SEQ ID NO 179] | binds
KEQTKSTVSDMETMYYLTLEAKDGGWKKLYEAKVWVKKYWISHFALNFK (designed binder) [SEQ ID NO 180] | binds
KEQYYEQLPDSPTMYYLTLEAKDGGWKKLYEAKVWVKEMRFQHFQLNFK (designed binder) [SEQ ID NO 182] | binds
KEQEHYKNVEPYTMYYLTLEAKDGGWKKLYEAKVWVKQMYFTYFTMNFK (designed binder) [SEQ ID NO 189] | binds
KEQYYDMPEHLYTMYYLTLEAKDGGWKKLYEAKVWVKTFRFEHMVLNFK (designed binder) [SEQ ID NO 181] | binds
KEQKTLDTFDGFTMYYLTLEAKDGGWKKLYEAKVWVKEIRIEFMILNFK (designed binder) [SEQ ID NO 187] | binds
KEQMEQHVDILPTMYYLTLEAKDGGWKKLYEAKVWVKVYDFGHFTMNFK (designed binder) [SEQ ID NO 183] | binds
KEQEYRVQHETITMYYLTLEAKDGGWKKLYEAKVWVKEIQGLNFKMNFK (designed binder) [SEQ ID NO 184] | binds
